# Results as given in patent publication US9044389B2, “Isoxazoline derivatives as pesticides” (Novartis AG, priority 2008, dated 2015).
# Some results were stated once for a whole list of compounds, not compound by compound.
# Tests used:
# [1] = tested on: Rhipicephalus sanguineus (Dog Tick); assay: Activity in vitro against Rhipicephalus sanguineus (dog tick), adult contact test; details: 640 ppm; adult ticks, 10 minutes contact, 7 days at 28° C. and 80% relative humidity
# [2] = tested on: Ctenocephalides felis (Cat Flea); assay: Activity in vitro against Ctenocephalides felis (cat flea), artificial blood feeding system; details: 100 ppm; adult fleas fed on treated blood for 24 hours; dead fleas counted
# [3] = tested on: Ctenocephalides felis (Cat Flea); assay: Activity in vivo against Ctenocephalides felis (cat flea) on Mongolian gerbils (per oral application); details: 100 mg/kg orally by gavage, live fleas counted 48 h after infestation, vs placebo, Abbot's formula
# [4] = tested on: Rhipicephalus sanguineus nymphs; assay: Activity in vivo against Rhipicephalus sanguineus nymphs on Mongolian gerbils (per oral application); details: 100 mg/kg orally by gavage, tick number reduction vs placebo, Abbot's formula
Structure (SMILES),efficacy (EC80) [1],efficacy (EC80) [2],efficacy (EC90) [3],efficacy (EC90) [4]
"Cc1cc(C2=NOC(c3cc(Cl)cc(Cl)c3)(C(F)(F)F)C2)sc1C(=O)NCC(F)(F)F (stereo not drawn) [Compound 1.8, 5-[5-(3,5-dichloro-phenyl)-5-trifluoromethyl-4,5-dihydro-isoxazol-3-yl]-3-methyl-thiophene-2-carboxylic acid (2,2,2-trifluoro-ethyl)-amide]",more than 80%,more than 80%,–,–
"Cc1cc(C2=NOC(c3cc(Cl)cc(Cl)c3)(C(F)(F)F)C2)sc1C(=O)NCC(=O)NCC(F)(F)F (stereo not drawn) [Compound 1.28, 5-[5-(3,5-dichloro-phenyl)-5-trifluoromethyl-4,5-dihydro-isoxazol-3-yl]-3-methyl-thiophene-2-carboxylic acid [(2,2,2-trifluoro-ethylcarbamoyl)-methyl]-amide]",more than 80%,more than 80%,more than 90%,more than 90%
